From paper doi:10.1101/2023.10.10.561251
These are yes or no findings as the source states them, for the method shown. In cells and extracts the contact can be indirect. Here binding means that the protein was enriched with, or labelled near, the bait; the list need not be complete. Where a sequence is shown, tags or fusion partners need not be part of it.

T1: VIPP1-YFP (Arabidopsis thaliana Vesicle-Inducing Protein in Plastids 1 with a C-terminal YFP) (A. thaliana) (UniProt O80796)
T1 sequence: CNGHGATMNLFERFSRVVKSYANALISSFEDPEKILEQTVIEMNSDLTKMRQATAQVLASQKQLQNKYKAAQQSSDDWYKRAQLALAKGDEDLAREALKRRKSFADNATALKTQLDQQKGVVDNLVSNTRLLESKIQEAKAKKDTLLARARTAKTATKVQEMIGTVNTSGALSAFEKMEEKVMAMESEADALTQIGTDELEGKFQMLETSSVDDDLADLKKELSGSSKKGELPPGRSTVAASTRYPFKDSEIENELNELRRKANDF

T2: VIPP1-YFP (Arabidopsis thaliana Vesicle-Inducing Protein in Plastids 1 with a C-terminal YFP) (A. thaliana), O80796
T2 chain: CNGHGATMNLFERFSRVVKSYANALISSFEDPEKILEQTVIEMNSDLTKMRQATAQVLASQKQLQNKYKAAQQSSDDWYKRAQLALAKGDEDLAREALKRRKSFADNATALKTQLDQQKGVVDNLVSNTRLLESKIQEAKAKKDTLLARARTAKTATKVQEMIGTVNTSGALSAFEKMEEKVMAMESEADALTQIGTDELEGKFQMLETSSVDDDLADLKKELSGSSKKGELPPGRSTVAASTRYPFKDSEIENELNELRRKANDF


Legend:
[1] = biological target: T1, VIPP1-YFP (Arabidopsis thaliana Vesicle-Inducing Protein in Plastids 1 with a C-terminal YFP) (A. thaliana); experiment: affinity purification with mass spectrometry
[2] = biological target: T2, VIPP1-YFP (Arabidopsis thaliana …); experiment: affinity purification with mass spectrometry; conditions: remark: other sources report otherwise

Molecule | binding [1] | binding [2]
chaperone Dna-J domain-containing protein C73 | binds | –
small subunit of the Acetolactate Synthase protein complex (ALS-2) | binds | –
VIPP1-Associated protein 1 (At5g03900), endogenous (protein, UniProt Q8GW20 64-523) ASLDKVSGAIKPGGLVESDKLPTDVRKRAMDAVDECGRRVTVGDVASRGGLKVTEAQTALQAIAADTDGFLEVSDEGDVLYVFPRDYRTKLAAKSLRIQIEPFLEKAKGAVDYLARVSFGTALIASIVIVYTSIIALLSSKSEDDNRQRRRGRSYDSGFNFYINPVDLLWYWDPNYYNRRRAREDEGKGMNFIESVFSFVFGDGDPNQGIEEERWQMIGQYITSRGGVVAADELAPYLDVPSSKSAMNDESYILPVLLRFDGQPELDEEGNILYCFPSLQRTASGSSRRKEYVGKWFDWVADMEKFFKEKKWQFSKTSTSERALVIGLGAVNLFGVIVLNTLLNEMSVRPGGFLTFVKNIYPLLQIYAGSFFTIPLIRWFSIKRKNNQIENRNKARLQFARALESPDIALRRKLLSARDMAQKTVIGKDRIVYSTDRDMMEQNYETDEWDRRFKELEKSD | binds | –
plastid-encoded NAD(P)H-quinone oxidoreductase subunit I, P56755 1-172 (protein) MLPMITGFMNYGQQTLRAARYIGQGFMITLSHTNRLPVTIQYPYEKLITSERFRGRIHFEFDKCIACEVCVRVCPIDLPVVDWKLETNIRKKRLLNYSIDFGICIFCGNCVEYCPTNCLSMTEEYEFSTYDRHELNYNQIALGRLPMSVIDDYTIRTIWNSPQTKNGVNPLI | – | binds
